Results as given in PubChem BioAssay (EPA / NIEHS).
Inconclusive means that the source gave no clear call. Such entries were picked first, then a sample of the others. Potencies of inconclusive entries are doubtful fits and often do not repeat. The source made the active and inactive calls. How the source made its calls: active means hit-call score of the fitted dose curve at least 0.9, where 1 is the maximum; inconclusive means response in the unintended direction; inactive means score below 0.9.

Protein sequences, listed by entry. Tags and fused reporters are not part of them. Lines headed by an entry give the natural chain unless they say otherwise; changes in a name come on top.
UniProt P20813: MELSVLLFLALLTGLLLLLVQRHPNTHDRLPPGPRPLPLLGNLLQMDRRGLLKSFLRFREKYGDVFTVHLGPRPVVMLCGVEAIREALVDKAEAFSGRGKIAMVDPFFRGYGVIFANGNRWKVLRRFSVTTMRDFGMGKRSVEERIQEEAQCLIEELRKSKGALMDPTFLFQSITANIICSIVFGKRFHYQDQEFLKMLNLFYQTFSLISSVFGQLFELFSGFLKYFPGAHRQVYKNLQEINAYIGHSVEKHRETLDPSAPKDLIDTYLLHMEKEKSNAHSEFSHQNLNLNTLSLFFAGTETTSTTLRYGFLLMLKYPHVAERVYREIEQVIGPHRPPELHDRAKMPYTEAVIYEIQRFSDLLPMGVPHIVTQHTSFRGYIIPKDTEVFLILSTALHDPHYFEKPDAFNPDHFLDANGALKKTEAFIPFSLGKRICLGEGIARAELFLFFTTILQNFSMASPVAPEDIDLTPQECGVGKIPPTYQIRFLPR
UniProt P33261, whole entry, looked up: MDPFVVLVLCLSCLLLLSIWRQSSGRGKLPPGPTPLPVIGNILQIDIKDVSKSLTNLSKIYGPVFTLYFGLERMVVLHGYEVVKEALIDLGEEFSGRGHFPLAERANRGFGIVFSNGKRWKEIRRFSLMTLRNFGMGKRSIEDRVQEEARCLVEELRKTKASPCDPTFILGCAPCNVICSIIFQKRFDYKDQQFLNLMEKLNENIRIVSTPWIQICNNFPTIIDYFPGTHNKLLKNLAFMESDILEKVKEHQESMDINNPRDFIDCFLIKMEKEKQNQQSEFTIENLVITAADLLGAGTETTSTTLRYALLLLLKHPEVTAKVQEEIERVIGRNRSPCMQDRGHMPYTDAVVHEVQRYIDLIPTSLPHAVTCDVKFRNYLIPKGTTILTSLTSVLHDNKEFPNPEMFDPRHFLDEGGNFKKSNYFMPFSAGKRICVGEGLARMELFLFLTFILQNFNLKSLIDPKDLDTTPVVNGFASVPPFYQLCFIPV
UniProt P04406: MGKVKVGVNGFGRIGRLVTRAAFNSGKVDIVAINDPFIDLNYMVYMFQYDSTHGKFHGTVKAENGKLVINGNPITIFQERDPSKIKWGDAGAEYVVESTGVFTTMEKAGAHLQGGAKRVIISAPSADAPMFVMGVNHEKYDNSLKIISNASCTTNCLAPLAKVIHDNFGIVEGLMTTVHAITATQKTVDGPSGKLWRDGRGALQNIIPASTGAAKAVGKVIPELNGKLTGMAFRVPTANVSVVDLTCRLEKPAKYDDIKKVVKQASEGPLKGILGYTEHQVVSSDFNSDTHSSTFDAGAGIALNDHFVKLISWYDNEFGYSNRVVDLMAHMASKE

These compounds were tested on xenobiotic metabolism (CYP1A1), CYP1A1 (gene 1543) (assay: CLD_CYP1A1_24hr: CellzDirect (CLD) Gene Expression Assay for xenobiotic metabolism (CYP1A1) at 24 hours (AID 2283673);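 further: CYP1A1 mRNA level by quantitative nuclease protection with chemiluminescence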).
Procedure, shortened: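 Transcript levels were read at 24 h by qNPA chemiluminescence in human liver primary cells. Cells got daily fresh dosing at multiple concentrations (vehicle 0.2% DMSO). Induction fitted upward against DMSO; phase-contrast cytotoxicity annotated.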

`O=C(O)COc1nc(Cl)c(Cl)cc1Cl` was tested. Which outcome did it give?
The outcome was “inactive”.

How did the AC50 turn out when `CNC(=O)Oc1cccc2c1OC(C)(C)O2` was run?
The AC50 was inconclusive: 20 µM.

Which outcome does the source give for `COc1cnc(OC)n2nc(NS(=O)(=O)c3c(OCC(F)F)cccc3C(F)(F)F)nc12` here?
The outcome was “inactive”.

With `CNC(=O)Oc1cccc(N=CN(C)C)c1` as the compound, how does the AC50 read?
The AC50 was inconclusive: 0.000548 µM.

What follows are compounds tested on ABC Transporter (ABCB11), ABCB11 (gene 8647) (assay: CLD_ABCB11_6hr: CellzDirect (CLD) Gene Expression Assay for ABC Transporter (ABCB11) at 6 hours (AID 2283675);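 further: hits raise ABCB11 mRNA level so AC50 marks induction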).
Procedure, shortened: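 Read-out was ABCB11 mRNA gain of signal by quantitative nuclease protection assay, relative to 0.2% DMSO vehicle, 6 h post-dose. Cells were primary human hepatocytes from two donors, treated across multiple concentrations; phase-contrast cytotoxicity noted yes/no.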

With `CCc1nn(C)c(C(=O)NCc2ccc(C(C)(C)C)cc2)c1Cl` as the compound, how does the outcome read?
Its outcome is “inactive”.

With `CCOc1nc(NC)nc(NC(=O)NS(=O)(=O)c2ccccc2C(=O)OC)n1` as the compound, how does the AC50 read?
The AC50 was inconclusive: 20 µM.

`CC(C)OC(=O)Nc1cccc(Cl)c1` was tested. Which AC50 did it give?
Its AC50 is inconclusive: 20 µM.

The compounds below were run on Cytochrome P450 2B6 (Homo sapiens) (UniProt P20813) (assay: CLD_CYP2B6_6hr: CellzDirect (CLD) Gene Expression Assay for xenobiotic metabolism (CYP2B6) at 6 hours (AID 2283677);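 further: actives raise CYP2B6 transcript above DMSO baseline so AC50 marks an inducer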).
Procedure, shortened: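 CYP2B6 transcript levels, read by chemiluminescent qNPA, were fitted for increase versus DMSO baseline; cultured human liver hepatocytes from two donor preparations were harvested 6 h after exposure to test chemicals at multiple concentrations.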

`CCc1nn(C)c(C(=O)NCc2ccc(C(C)(C)C)cc2)c1Cl` was tested. Which outcome did it give?
The outcome was “inactive”.

For `O=C(Nc1ccccc1)Nc1cnns1`, which AC50 is on record?
The AC50 was inconclusive: 0.00648 µM.

How did the AC50 turn out when `CNC(=O)Oc1cccc2c1OC(C)(C)O2` was run?
The AC50 was active: 2.74 µM.

`CC(C)OC(=O)Nc1cccc(Cl)c1` was tested. Which AC50 did it give?
Its AC50 is active: 6.86 µM.

For `CC[C@H](C)[C@H]1O[C@]2(C=C[C@@H]1C)C[C@@H]1C[C@@H](C/C=C(\C)[C@@H](O[C@H]3C[C@H](OC)[C@@H](O[C@H]4C[C@H](OC)[C@@H](NC)[C@H](C)O4)[C@H](C)O3)[C@@H](C)/C=C/C=C3\CO[C@@H]4[C@H](O)C(C)=C[C@@H](C(=O)O1)[C@]34O)O2`, which AC50 is on record?
Its AC50 is inconclusive: 2 µM.

The compounds below were run on Cytochrome P450 2C19 (Homo sapiens) (UniProt P33261) (assay: CLD_CYP2C19_6hr: CellzDirect (CLD) Gene Expression Assay for xenobiotic metabolism (CYP2C19) at 6 hours (AID 2283678)).
Procedure, shortened: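 CYP2C19 transcript induction was quantified by quantitative nuclease protection assay with chemiluminescent read-out, 6 h after dosing. Cells were primary human hepatocytes from two donor preparations, given fresh dosing solutions daily in 0.2% DMSO vehicle. Activity was relative to DMSO.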

For `CCNc1nc(Cl)nc(NCC)n1`, which AC50 is on record?
The AC50 was inconclusive: 20 µM.

With `CCOc1nc(NC)nc(NC(=O)NS(=O)(=O)c2ccccc2C(=O)OC)n1` as the compound, how does the AC50 read?
The AC50 was inconclusive: 0.0441 µM.

Which AC50 does the source give for `O=C(Nc1ccccc1)Nc1cnns1` here?
The AC50 was inconclusive: 20 µM.

Which AC50 does the source give for `CNC(=O)Oc1cccc2c1OC(C)(C)O2` here?
The AC50 was inconclusive: 20 µM.

`CCN(CC)C(=O)SCc1ccc(Cl)cc1` was tested. Which outcome did it give?
Its outcome is “inactive”.

How did the AC50 turn out when `COP(=S)(OC)Oc1nc(Cl)c(Cl)cc1Cl` was run?
The AC50 was inconclusive: 20 µM.

For `N#Cc1cc(Br)c(O)c(Br)c1`, which AC50 is on record?
Its AC50 is inconclusive: 20 µM.

How did the outcome turn out when `COc1cnc(OC)n2nc(NS(=O)(=O)c3c(OCC(F)F)cccc3C(F)(F)F)nc12` was run?
The outcome was “inactive”.

With `CC[C@H](C)[C@H]1O[C@]2(C=C[C@@H]1C)C[C@@H]1C[C@@H](C/C=C(\C)[C@@H](O[C@H]3C[C@H](OC)[C@@H](O[C@H]4C[C@H](OC)[C@@H](NC)[C@H](C)O4)[C@H](C)O3)[C@@H](C)/C=C/C=C3\CO[C@@H]4[C@H](O)C(C)=C[C@@H](C(=O)O1)[C@]34O)O2` as the compound, how does the AC50 read?
The AC50 was active: 32.6 µM.

These compounds were tested on Glyceraldehyde-3-phosphate dehydrogenase (Homo sapiens) (UniProt P04406) (assay: CLD_GAPDH_6hr: CellzDirect (CLD) Gene Expression Assay for Baseline Control (Glyceraldehyde 3-phosphate dehydrogenase) at 6 hours (AID 2283681);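 on outcome: active means increased signal relative to DMSO vehicle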).
Procedure, shortened: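 GAPDH baseline-control readout from qNPA (S1 nuclease digestion, probe hybridization, chemiluminescence) in lysates of cultured human hepatocytes harvested 6 h post-dosing. Chemicals tested at multiple concentrations versus 0.2% DMSO vehicle; microscopy-based cytotoxicity flagged yes/no.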

How did the AC50 turn out when `CCc1nn(C)c(C(=O)NCc2ccc(C(C)(C)C)cc2)c1Cl` was run?
Its AC50 is inconclusive: 20 µM.

For `N#Cc1nn(-c2c(Cl)cc(C(F)(F)F)cc2Cl)c(N)c1S(=O)C(F)(F)F` (stereo not drawn), which outcome is on record?
The outcome was “inactive”.

For `O=C(O)COc1nc(Cl)c(Cl)cc1Cl`, which outcome is on record?
The outcome was “inactive”.

For `Nc1c(Cl)cc([N+](=O)[O-])cc1Cl`, which outcome is on record?
The outcome was “inactive”.

How did the AC50 turn out when `O=C(Nc1ccccc1)Nc1cnns1` was run?
The AC50 was inconclusive: 20 µM.

Which AC50 does the source give for `CNC(=O)Oc1cccc2c1OC(C)(C)O2` here?
The AC50 was inconclusive: 0.00745 µM.

For `Cc1ccn2nc(S(=O)(=O)Nc3c(F)cccc3F)nc2n1`, which outcome is on record?
The outcome was “inactive”.

How did the AC50 turn out when `COc1cccc(C(=O)NN(C(=O)c2cc(C)cc(C)c2)C(C)(C)C)c1C` was run?
The AC50 was inconclusive: 20 µM.

With `CC(C)OC(=O)Nc1cccc(Cl)c1` as the compound, how does the AC50 read?
The AC50 was inconclusive: 20 µM.

With `CCN(CC)C(=O)SCc1ccc(Cl)cc1` as the compound, how does the AC50 read?
Its AC50 is inconclusive: 20 µM.

Which outcome does the source give for `N#Cc1cc(Br)c(O)c(Br)c1` here?
Its outcome is “inactive”.

`COc1cnc(OC)n2nc(NS(=O)(=O)c3c(OCC(F)F)cccc3C(F)(F)F)nc12` was tested. Which AC50 did it give?
Its AC50 is inconclusive: 20 µM.

Which AC50 does the source give for `CC[C@H](C)[C@H]1O[C@]2(C=C[C@@H]1C)C[C@@H]1C[C@@H](C/C=C(\C)[C@@H](O[C@H]3C[C@H](OC)[C@@H](O[C@H]4C[C@H](OC)[C@@H](NC)[C@H](C)O4)[C@H](C)O3)[C@@H](C)/C=C/C=C3\CO[C@@H]4[C@H](O)C(C)=C[C@@H](C(=O)O1)[C@]34O)O2` here?
The AC50 was inconclusive: 35 µM.

What follows are compounds tested on HMG-CoA synthase (HMGCS2), HMGCS2 (gene 3158) (assay: CLD_HMGCS2_6hr: CellzDirect (CLD) Gene Expression Assay for HMG-CoA synthase (HMGCS2) at 6 hours (AID 2283682);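 further: actives raise HMGCS2 transcript above the 0.2% DMSO vehicle baseline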).
Procedure, shortened: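 HMGCS2 transcript induction read by quantitative nuclease protection with chemiluminescence, 6 h after dosing of primary human hepatocytes. Baseline was 0.2% DMSO vehicle; phase-contrast morphology gave a yes/no cytotoxicity annotation.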

For `N#Cc1nn(-c2c(Cl)cc(C(F)(F)F)cc2Cl)c(N)c1S(=O)C(F)(F)F` (stereo not drawn), which outcome is on record?
Its outcome is “inactive”.

For `Nc1c(Cl)cc([N+](=O)[O-])cc1Cl`, which AC50 is on record?
The AC50 was inconclusive: 0.0226 µM.

With `CCNc1nc(Cl)nc(NCC)n1` as the compound, how does the AC50 read?
Its AC50 is inconclusive: 20 µM.

With `CCOc1nc(NC)nc(NC(=O)NS(=O)(=O)c2ccccc2C(=O)OC)n1` as the compound, how does the outcome read?
The outcome was “inactive”.

For `CNC(=O)Oc1cccc2c1OC(C)(C)O2`, which outcome is on record?
Its outcome is “inactive”.

Which AC50 does the source give for `Cc1ccn2nc(S(=O)(=O)Nc3c(F)cccc3F)nc2n1` here?
The AC50 was inconclusive: 0.0004 µM.

Which outcome does the source give for `COc1cccc(C(=O)NN(C(=O)c2cc(C)cc(C)c2)C(C)(C)C)c1C` here?
The outcome was “inactive”.

`CC(C)OC(=O)Nc1cccc(Cl)c1` was tested. Which AC50 did it give?
Its AC50 is inconclusive: 0.0631 µM.

How did the AC50 turn out when `COP(=S)(OC)Oc1nc(Cl)c(Cl)cc1Cl` was run?
The AC50 was inconclusive: 3.97 µM.

How did the outcome turn out when `CCCN(CCOc1c(Cl)cc(Cl)cc1Cl)C(=O)n1ccnc1` was run?
Its outcome is “inactive”.

Which outcome does the source give for `CNC(=O)Oc1cccc(N=CN(C)C)c1` here?
The outcome was “inactive”.

Each compound was assayed on xenobiotic metabolism (CYP1A2), CYP1A2 (gene 1544) (assay: CLD_CYP1A2_24hr: CellzDirect (CLD) Gene Expression Assay for xenobiotic metabolism (CYP1A2) at 24 hours (AID 2283683)).
Procedure, shortened: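 CYP1A2 mRNA induction measured by quantitative nuclease protection (chemiluminescent) in human primary hepatocytes 24 h after multi-concentration chemical dosing with daily fresh solutions. DMSO (0.2%) baseline; positive-direction fitting; morphology-based cytotoxicity noted.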

For `N#Cc1nn(-c2c(Cl)cc(C(F)(F)F)cc2Cl)c(N)c1S(=O)C(F)(F)F` (stereo not drawn), which AC50 is on record?
The AC50 was inconclusive: 20 µM.

With `N#Cc1cc(Br)c(O)c(Br)c1` as the compound, how does the AC50 read?
The AC50 was active: 33.4 µM.

`CNC(=O)Oc1cccc(N=CN(C)C)c1` was tested. Which outcome did it give?
The outcome was “inactive”.
